Measurements: EP2662386A1
No constants are given. Whether binding was seen depends on the method and setting. For some of these results: In cells and extracts the contact can be indirect. Some binding calls cover weakened binding; strength is not graded here. For some of these results: Sequences can lack the tags named with a protein.

Tests used:
[1] = target: T1, GST-FGF7 (bacterially expressed and purified) (human) (UniProt P21781); experiment: in vitro interaction assay (legend of Figure 2)
T1 sequence: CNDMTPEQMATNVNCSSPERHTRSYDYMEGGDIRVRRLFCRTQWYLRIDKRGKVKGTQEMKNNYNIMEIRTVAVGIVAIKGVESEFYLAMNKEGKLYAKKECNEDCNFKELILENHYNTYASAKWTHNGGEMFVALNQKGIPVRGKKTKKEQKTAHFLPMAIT

[2] = target: T1, GST-FGF7 (bacterially expressed and purified) (human); experiment: pull-down of PLAC1 from HEK293T lysate on immobilized GST-FGF7, immunoblot
[3] = target: T2, FGF7 expressed in HEK293T cells (human) (UniProt P21781); experiment: co-immunoprecipitation with an FGF7-specific antibody from HEK293T cells
T2 sequence: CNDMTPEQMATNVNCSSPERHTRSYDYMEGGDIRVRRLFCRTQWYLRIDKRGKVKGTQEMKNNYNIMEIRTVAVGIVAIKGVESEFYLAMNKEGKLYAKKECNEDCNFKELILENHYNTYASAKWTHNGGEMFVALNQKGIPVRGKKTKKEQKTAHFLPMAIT

[4] = target: T2, FGF7 expressed in HEK293T cells (human); experiment: co-immunoprecipitation (legend of Figure 3)

Measured: binding

B1: human PLAC1 (protein)
chain: QSPMTVLCSIDWFMVTVHPFMLNNDVCVHFHELHLGLGCPPNHVQPHAYQFTYRVTECGIRAKAVSQDMVIYSTEIHYSSKGTPSKFVIPVSCAAPQKSPWLTKPCSMRVASKSRATAQKDEKCYEVFSLSQSSQRPNCDCPPCVFSEEEHTQVPCHQAGAQEAQPLQPSHFLDISEDWSLHTDDMIGSM
binds: [1] | [2] | [3] | [4]
